{"source": "PubChem BioAssay AID1259405 (NCATS, 2018)", "aim": "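Silenced genes that increase secreted GFP made by CHO cells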 (primary screen)", "cell system": "Chinese hamster CHO-K1 ovary cells with stable secreted eGFP expression", "reagent": "single siRNA against mouse genes, 0.8 pmol siRNA per well (2 µl of 400 nM stock)", "timing": "3 days", "read-out": "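Per-well intracellular GFP measured by laser scanning cytometry, plus viability from ATP luminescence, each relative to plate median of non-targeting control wells, in %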", "direction": "GFP, % of control: higher = more GFP per well, higher productivity; viability (ATP), % of control: higher = more viable cells (more ATP)", "rule for the call": "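a knock-down is called active if GFP reaches 120% or more of non-targeting control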", "note": "The whole screen tested about 50,000 reagents; shown is an unselected part. Over the whole deposit, about 4,000 (8%) are marked active. 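Mouse siRNA library applied to hamster cells; one well for each siRNA.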 Reagents against one gene are numbered here."}
{"Gene":"Txndc17 (GeneID 52700)","siRNA no.":1,"GFP, % of control":163,"viability (ATP), % of control":105,"call":"active"}
{"Gene":"Txndc17 (GeneID 52700)","siRNA no.":2,"GFP, % of control":105,"viability (ATP), % of control":64.2,"call":"inactive"}
{"Gene":"Txndc17 (GeneID 52700)","siRNA no.":3,"GFP, % of control":104,"viability (ATP), % of control":73.6,"call":"inactive"}
{"Gene":"Foxc2 (GeneID 14234)","siRNA no.":1,"GFP, % of control":67.3,"viability (ATP), % of control":102,"call":"inactive"}
{"Gene":"Foxc2 (GeneID 14234)","siRNA no.":2,"GFP, % of control":86.6,"viability (ATP), % of control":90.8,"call":"inactive"}
{"Gene":"Nim1k (GeneID 245269)","siRNA no.":1,"GFP, % of control":117,"viability (ATP), % of control":78.5,"call":"inactive"}
{"Gene":"Nim1k (GeneID 245269)","siRNA no.":2,"GFP, % of control":80.1,"viability (ATP), % of control":73.6,"call":"inactive"}
{"Gene":"Nim1k (GeneID 245269)","siRNA no.":3,"GFP, % of control":86.7,"viability (ATP), % of control":96,"call":"inactive"}
{"Gene":"Npm3 (GeneID 18150)","siRNA no.":1,"GFP, % of control":82.3,"viability (ATP), % of control":137,"call":"inactive"}
{"Gene":"Npm3 (GeneID 18150)","siRNA no.":2,"GFP, % of control":94.7,"viability (ATP), % of control":81.1,"call":"inactive"}
{"Gene":"Pcdhgc5 (GeneID 93708)","siRNA no.":1,"GFP, % of control":103,"viability (ATP), % of control":55.3,"call":"inactive"}
{"Gene":"Pcdhgc5 (GeneID 93708)","siRNA no.":2,"GFP, % of control":74.5,"viability (ATP), % of control":66.1,"call":"inactive"}
{"Gene":"Pcdhgc5 (GeneID 93708)","siRNA no.":3,"GFP, % of control":34.9,"viability (ATP), % of control":33.6,"call":"inactive"}
{"Gene":"H1f6 (GeneID 107970)","siRNA no.":1,"GFP, % of control":50.8,"viability (ATP), % of control":44.2,"call":"inactive"}
{"Gene":"H1f6 (GeneID 107970)","siRNA no.":2,"GFP, % of control":97,"viability (ATP), % of control":113,"call":"inactive"}
{"Gene":"H1f6 (GeneID 107970)","siRNA no.":3,"GFP, % of control":55.6,"viability (ATP), % of control":51.5,"call":"inactive"}
{"Gene":"Or14a257 (GeneID 257905)","siRNA no.":1,"GFP, % of control":87.2,"viability (ATP), % of control":104,"call":"inactive"}
{"Gene":"Or14a257 (GeneID 257905)","siRNA no.":2,"GFP, % of control":86.9,"viability (ATP), % of control":43.2,"call":"inactive"}
{"Gene":"Or14a257 (GeneID 257905)","siRNA no.":3,"GFP, % of control":78.9,"viability (ATP), % of control":59,"call":"inactive"}
{"Gene":"Snx29 (GeneID 74478)","siRNA no.":1,"GFP, % of control":84.2,"viability (ATP), % of control":55.3,"call":"inactive"}
{"Gene":"Snx29 (GeneID 74478)","siRNA no.":2,"GFP, % of control":103,"viability (ATP), % of control":97.5,"call":"inactive"}
{"Gene":"Snx29 (GeneID 74478)","siRNA no.":3,"GFP, % of control":106,"viability (ATP), % of control":136,"call":"inactive"}
{"Gene":"4930474M22Rik (GeneID 74917)","siRNA no.":1,"GFP, % of control":124,"viability (ATP), % of control":101,"call":"active"}
{"Gene":"4930474M22Rik (GeneID 74917)","siRNA no.":2,"GFP, % of control":152,"viability (ATP), % of control":87.3,"call":"active"}
{"Gene":"4930474M22Rik (GeneID 74917)","siRNA no.":3,"GFP, % of control":98.9,"viability (ATP), % of control":106,"call":"inactive"}
{"Gene":"Zfpl1 (GeneID 81909)","siRNA no.":1,"GFP, % of control":41.6,"viability (ATP), % of control":60,"call":"inactive"}
{"Gene":"Zfpl1 (GeneID 81909)","siRNA no.":2,"GFP, % of control":95.2,"viability (ATP), % of control":79.7,"call":"inactive"}
{"Gene":"Hyal6 (GeneID 74409)","siRNA no.":1,"GFP, % of control":80.1,"viability (ATP), % of control":98.5,"call":"inactive"}
{"Gene":"Hyal6 (GeneID 74409)","siRNA no.":2,"GFP, % of control":84.5,"viability (ATP), % of control":119,"call":"inactive"}
{"Gene":"Hyal6 (GeneID 74409)","siRNA no.":3,"GFP, % of control":94.6,"viability (ATP), % of control":105,"call":"inactive"}
{"Gene":"Anapc7 (GeneID 56317)","siRNA no.":1,"GFP, % of control":37.7,"viability (ATP), % of control":33,"call":"inactive"}
{"Gene":"Anapc7 (GeneID 56317)","siRNA no.":2,"GFP, % of control":63.7,"viability (ATP), % of control":71.6,"call":"inactive"}
{"Gene":"Anapc7 (GeneID 56317)","siRNA no.":3,"GFP, % of control":131,"viability (ATP), % of control":91,"call":"active"}
{"Gene":"Ppp2r5d (GeneID 21770)","siRNA no.":1,"GFP, % of control":143,"viability (ATP), % of control":142,"call":"active"}
{"Gene":"Ppp2r5d (GeneID 21770)","siRNA no.":2,"GFP, % of control":44.3,"viability (ATP), % of control":43.8,"call":"inactive"}
{"Gene":"Ppp2r5d (GeneID 21770)","siRNA no.":3,"GFP, % of control":85.4,"viability (ATP), % of control":68,"call":"inactive"}
{"Gene":"Fam110c (GeneID 104943)","siRNA no.":1,"GFP, % of control":75,"viability (ATP), % of control":60.2,"call":"inactive"}
{"Gene":"Fam110c (GeneID 104943)","siRNA no.":2,"GFP, % of control":80.5,"viability (ATP), % of control":81.9,"call":"inactive"}
{"Gene":"Fam110c (GeneID 104943)","siRNA no.":3,"GFP, % of control":61.2,"viability (ATP), % of control":65.5,"call":"inactive"}
{"Gene":"Sult2a8 (GeneID 76971)","siRNA no.":1,"GFP, % of control":78.9,"viability (ATP), % of control":81.4,"call":"inactive"}
{"Gene":"Sult2a8 (GeneID 76971)","siRNA no.":2,"GFP, % of control":59,"viability (ATP), % of control":45.8,"call":"inactive"}
{"Gene":"Sult2a8 (GeneID 76971)","siRNA no.":3,"GFP, % of control":44.8,"viability (ATP), % of control":81.7,"call":"inactive"}

Hits, among the entries above:
{"Gene":"Txndc17 (GeneID 52700)","siRNA no.":1,"GFP, % of control":163,"viability (ATP), % of control":105,"call":"active"}
{"Gene":"4930474M22Rik (GeneID 74917)","siRNA no.":1,"GFP, % of control":124,"viability (ATP), % of control":101,"call":"active"}
{"Gene":"4930474M22Rik (GeneID 74917)","siRNA no.":2,"GFP, % of control":152,"viability (ATP), % of control":87.3,"call":"active"}
{"Gene":"Anapc7 (GeneID 56317)","siRNA no.":3,"GFP, % of control":131,"viability (ATP), % of control":91,"call":"active"}
{"Gene":"Ppp2r5d (GeneID 21770)","siRNA no.":1,"GFP, % of control":143,"viability (ATP), % of control":142,"call":"active"}
